Values joined by “and” are separate entries in the source; they are usually repeats but may differ in a detail not shown here. Equal entries are not always repeated. Hit rate of the full screen: of about 300,000 compounds, about 5,400 (1.8%) were called active. Inconclusive results, whose numbers are uncertain, are shown with a selection of clear calls. Calls come from the whole dose curve; tested in HEK293 cells. A potency beside an inconclusive call is a rough fit, not a confirmed value.
Experiment: qHTS for inhibitors of binding or entry into cells for Marburg Virus
Conditions: Marburg virus pseudotyped entry inhibition, cell reporter; activity change, negative = inhibition: at 37.8 µM (top of the series) unless noted
With `C/C(=C\C(=O)c1ccccc1)Nc1ccc(Br)c(Cl)c1` the “activity change, negative = inhibition” value was inactive: -2.22%. For `O=C(O)c1cc2cc(S(=O)(=O)O)ccc2cc1O`, the Potency was inconclusive: 35.5 µM [activator, single point]. For `O=C(Nc1c(-c2ccccc2)nc2ccccn12)c1cccc(F)c1`, the “activity change, negative = inhibition” value was inactive: 2.45% [at 46.1 µM]. In the case of `CCN(CC)CCN1C(=O)C(=O)/C(=C(/O)c2cccc(OC)c2)C1c1ccccn1` (stereo not given), the “activity change, negative = inhibition” value was inactive: 2.18%. In the case of `Cc1ccc(NC(=O)CCCc2nnc3n(C)c(=O)c4sccc4n23)cc1F`, the “activity change, negative = inhibition” value was inactive: 17.7% [at 46.1 µM]. In the case of `Cc1cc(NC(=O)NN2CCOCC2)nn1-c1c(Cl)cccc1Cl`, the Potency was inconclusive: 5.62 µM [inhibitor, single point]. In the case of `O=C(Cn1cnnn1)NCc1ccccc1`, the “activity change, negative = inhibition” value was inactive: 0.248% [at 46.1 µM]. In the case of `O=C(CN1CCN(Cc2ccccc2)CC1)N/N=C/C=C/c1ccccc1[N+](=O)[O-]`, the Potency was “inactive and inconclusive: 3.55 µM [activator, single point]”. In the case of `CC(=O)Nc1ccc(S(=O)(=O)Nc2nc3ccccc3nc2N2CCc3ccccc3C2)cc1`, the “activity change, negative = inhibition” value was inactive: 0.456%. In the case of `O=C(C1CCCN(S(=O)(=O)c2cccc3nsnc23)C1)N1CC=C(c2ccccc2)CC1` (stereo not given), the Potency was inconclusive: 12.6 µM [inhibitor, partial curve, poor fit]. For `O=C(Cn1cnc2ccccc21)c1ccccc1`, the “activity change, negative = inhibition” value was inactive: 18.9% [at 46.1 µM]. With `CC(=O)N1CCc2ccccc2C1CC(=O)O` (stereo not given) the “activity change, negative = inhibition” value was inactive: 9.28% [at 46.1 µM]. With `COc1ccc(C(=O)NCC(C)(c2ccccc2)c2ccccc2)cc1S(=O)(=O)N1CCOCC1` the Potency was inconclusive: 1.41 µM [activator, partial curve, poor fit]. In the case of `CC1(C)Cc2c(sc(NC(=O)c3ccccc3)c2C(=O)O)CO1`, the Potency was inconclusive: 20 µM [inhibitor, partial curve, poor fit]. With `Cc1nc(CSc2ccc(Cl)cc2)cc(N2CC(C)OC(C)C2)n1` (stereo not given) the Potency was inconclusive: 35.5 µM [inhibitor, partial curve, poor fit]. With `Cc1nc2ccccn2c1C(=O)N=Nc1c(O)[nH]c2ccccc12` the Potency was inconclusive: 4.61 µM [activator, partial curve, poor fit]. For `Cc1cccc2sc(NNC(=O)c3ccc(S(=O)(=O)N4CCCC(C)C4)cc3)nc12` (stereo not given), the Potency was inconclusive: 23.1 µM [inhibitor, partial curve, poor fit]. With `CCOc1ccc(C(=O)Nc2cccc(C)n2)cc1` the Potency was active: 8.91 µM. With `Cc1cc(-c2ccc(C)c(S(=O)(=O)NCC3CCN(Cc4ccc(F)cc4)CC3)c2)on1` the Potency was inconclusive: 12.6 µM [inhibitor, single point]. For `Cc1ccc(-c2nn(-c3cccc(F)c3)cc2CN(Cc2nccn2C)C(C)C)o1`, the Potency was inconclusive: 22.4 µM [inhibitor, single point].

From PubChem BioAssay AID540276 (National Center for Advancing Translational Sciences (NCATS), 2011)
% is set by controls: 0 for no effect and ±100 for the full control effect; potency is the fitted concentration of half-maximal effect.
